The experiment addresses rat brain benzodiazepine receptors (3H-diazepam receptor). The experiment in a line: benzodiazepine receptor binding test in vitro (inhibition of specific 3H-diazepam binding to rat brain membranes). The source says:
The pharmacological properties of the compounds of the present invention were first investigated by submitting them to the benzodiazepine receptor binding test in vitro.

The structures appear in SMILES notation.

As for `CN1C(=O)CN=C(c2ccccc2)c2cc(Cl)ccc21` [Diazepam, reference compound], under “rat brain membranes, Ki = IC50/(1+C/KD), read-out: Ki (inhibitor constant, 3H-diazepam binding)”, the Ki (as a rule, the equilibrium dissociation constant of an inhibitor or competing ligand from its target) came out at 1.89 nM. With `CN1C(=O)CN=C(c2ccccc2)c2cc(Cl)ccc21` [^3 H-diazepam, reference compound], the Kd (in general, the free concentration of one partner at which half of the binding sites on the other are occupied at equilibrium, for simple one-to-one binding) (3H-diazepam, used in the calculation of Ki, read-out: KD (affinity constant of 3H-diazepam for its receptor)) is 3.4 nM.
